In the supplement of paper PMC8728848:
This is one part of the list.

Legend:
Experiment in all cases: glycan array binding signal (z-score within array); higher = stronger binding
Details in all cases: glycan notation: IUPAC condensed, linker removed
[1] = molecular target: Gal(b1-3)GlcNAc(b1-2)Man(a1-3)[Gal(b1-3)GlcNAc(b1-2)Man(a1-6)]Man(b1-4)GlcNAc(b1-4)GlcNAc
Procedure, shortened: (§1)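 Arrays were curated from the Consortium for Functional Glycomics database, 3228 in total, and kept only where the protein sequence was available. Binding is expressed as a within-array Z-score. This score was averaged across arrays of the same protein sequence at different concentrations or buffers and across linkers, and negative values can be read as non-binding.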

[2] = molecular target: Gal(b1-3)GlcNAc(b1-2)Man(a1-3)[Gal(b1-3)GlcNAc(b1-2)Man(a1-6)]Man(b1-4)GlcNAc(b1-4)[Fuc(a1-6)]GlcNAc
Procedure, shortened: as §1

[3] = molecular target: Gal(b1-3)GlcNAc(b1-2)Man(a1-3)[GlcNAc(b1-4)][Gal(b1-3)GlcNAc(b1-2)Man(a1-6)]Man(b1-4)GlcNAc(b1-4)GlcNAc
Procedure, shortened: as §1

[4] = molecular target: Gal(b1-3)GlcNAc(b1-2)[Gal(b1-3)GlcNAc(b1-6)]Man(a1-6)[Gal(b1-3)GlcNAc(b1-2)Man(a1-3)]Man(b1-4)GlcNAc(b1-4)GlcNAc
Procedure, shortened: as §1

[5] = molecular target: Gal(b1-3)GlcNAc(b1-3)Gal(b1-3)GlcNAc
Procedure, shortened: as §1

[6] = molecular target: Gal(b1-3)GlcNAc(b1-3)Gal(b1-4)Glc
Procedure, shortened: as §1

[7] = molecular target: Gal(b1-3)GlcNAc(b1-3)Gal(b1-4)GlcNAc
Procedure, shortened: as §1

[8] = molecular target: Gal(b1-3)GlcNAc(b1-3)Gal(b1-4)GlcNAc(b1-2)Man(a1-3)[Gal(b1-3)GlcNAc(b1-3)Gal(b1-4)GlcNAc(b1-2)Man(a1-6)]Man(b1-4)GlcNAc(b1-4)GlcNAc
Procedure, shortened: as §1

[9] = molecular target: Gal(b1-3)GlcNAc(b1-3)Gal(b1-4)GlcNAc(b1-2)[Gal(b1-3)GlcNAc(b1-3)Gal(b1-4)GlcNAc(b1-6)]Man(a1-6)[Gal(b1-3)GlcNAc(b1-3)Gal(b1-4)GlcNAc(b1-2)Man(a1-3)]Man(b1-4)GlcNAc(b1-4)[Fuc(a1-6)]GlcNAc
Procedure, shortened: as §1

[10] = molecular target: Gal(b1-3)GlcNAc(b1-3)Gal(b1-4)GlcNAc(b1-3)Gal(b1-4)GlcNAc(b1-2)[Gal(b1-3)GlcNAc(b1-3)Gal(b1-4)GlcNAc(b1-3)Gal(b1-4)GlcNAc(b1-6)]Man(a1-6)[Gal(b1-3)GlcNAc(b1-3)Gal(b1-4)GlcNAc(b1-3)Gal(b1-4)GlcNAc(b1-2)Man(a1-3)]Man(b1-4)GlcNAc(b1-4)[Fuc(a1-6)]GlcNAc
Procedure, shortened: as §1

[11] = molecular target: Gal(b1-3)GlcNAc(b1-3)Gal(b1-4)GlcNAc(b1-6)[Gal(b1-3)GlcNAc(b1-3)]Gal(b1-4)Glc
Procedure, shortened: as §1

[12] = molecular target: Gal(b1-3)GlcNAc(b1-3)Gal(b1-4)[Fuc(a1-3)]GlcNAc
Procedure, shortened: as §1

[13] = molecular target: Gal(b1-3)GlcNAc(b1-3)Gal(b1-4)[Fuc(a1-3)]GlcNAc(b1-6)[Gal(b1-3)GlcNAc(b1-3)]Gal(b1-4)Glc
Procedure, shortened: as §1

[14] = molecular target: Gal(b1-3)GlcNAc(b1-3)GalNAc
Procedure, shortened: as §1

[15] = molecular target: Gal(b1-3)GlcNAc(b1-6)Gal(b1-4)GlcNAc
Procedure, shortened: as §1

[16] = molecular target: Gal(b1-3)GlcNAc(b1-6)GalNAc
Procedure, shortened: as §1

[17] = molecular target: Gal(b1-3)GlcNAc(b1-6)[Gal(b1-3)]GalNAc
Procedure, shortened: as §1

Gal(b1-3)GlcNAc6S = molecular target: Gal(b1-3)GlcNAc6S
Procedure, shortened: as §1

[18] = molecular target: Gal(b1-3)[Fuc(a1-4)]GlcNAc
Procedure, shortened: as §1

[19] = molecular target: Gal(b1-3)[Fuc(a1-4)]GlcNAc(b1-2)Man
Procedure, shortened: as §1

[20] = molecular target: Gal(b1-3)[Fuc(a1-4)]GlcNAc(b1-2)Man(a1-3)[Gal(b1-3)[Fuc(a1-4)]GlcNAc(b1-2)Man(a1-6)]Man(b1-4)GlcNAc(b1-4)[Fuc(a1-6)]GlcNAc
Procedure, shortened: as §1

[21] = molecular target: Gal(b1-3)[Fuc(a1-4)]GlcNAc(b1-3)Gal(b1-3)[Fuc(a1-4)]GlcNAc
Procedure, shortened: as §1

[22] = molecular target: Gal(b1-3)[Fuc(a1-4)]GlcNAc(b1-3)Gal(b1-4)[Fuc(a1-3)]GlcNAc
Procedure, shortened: as §1

[23] = molecular target: Gal(b1-3)[Fuc(a1-4)]GlcNAc(b1-6)GalNAc
Procedure, shortened: as §1

[24] = molecular target: Gal(b1-3)[GlcNAc(b1-6)]GalNAc
Procedure, shortened: as §1

[25] = molecular target: Gal(b1-3)[Neu5Ac(a2-6)]GalNAc
Procedure, shortened: as §1

[26] = molecular target: Gal(b1-3)[Neu5Ac(a2-6)]GlcNAc(b1-4)Gal(b1-4)Glc
Procedure, shortened: as §1

[27] = molecular target: Gal(b1-3)[Neu5Ac(b2-6)]GalNAc
Procedure, shortened: as §1

Gal(b1-4)Gal = molecular target: Gal(b1-4)Gal
Procedure, shortened: as §1

[28] = molecular target: Gal(b1-4)GalNAc(a1-3)[Fuc(a1-2)]Gal(b1-4)GlcNAc
Procedure, shortened: as §1

[29] = molecular target: Gal(b1-4)GalNAc(b1-3)[Fuc(a1-2)]Gal(b1-4)GlcNAc
Procedure, shortened: as §1

Gal(b1-4)Glc = molecular target: Gal(b1-4)Glc
Procedure, shortened: as §1

Gal(b1-4)Glc6S = molecular target: Gal(b1-4)Glc6S
Procedure, shortened: as §1

Gal(b1-4)GlcNAc = molecular target: Gal(b1-4)GlcNAc
Procedure, shortened: as §1

[30] = molecular target: Gal(b1-4)GlcNAc(a1-6)Gal(b1-4)GlcNAc
Procedure, shortened: as §1

Gal(b1-4)GlcNAc(b1-2)Man = molecular target: Gal(b1-4)GlcNAc(b1-2)Man
Procedure, shortened: as §1

[31] = molecular target: Gal(b1-4)GlcNAc(b1-2)Man(a1-3)Man(b1-4)GlcNAc(b1-4)GlcNAc
Procedure, shortened: as §1

[32] = molecular target: Gal(b1-4)GlcNAc(b1-2)Man(a1-3)[Gal(b1-4)GlcNAc(b1-2)Man(a1-6)]Man(b1-4)GlcNAc(b1-4)GlcNAc
Procedure, shortened: as §1

[33] = molecular target: Gal(b1-4)GlcNAc(b1-2)Man(a1-3)[Gal(b1-4)GlcNAc(b1-2)Man(a1-6)]Man(b1-4)GlcNAc(b1-4)[Fuc(a1-6)]GlcNAc
Procedure, shortened: as §1

[34] = molecular target: Gal(b1-4)GlcNAc(b1-2)Man(a1-3)[Gal(b1-4)GlcNAc(b1-2)Man(a1-6)][Gal(b1-4)GlcNAc(b1-4)]Man(b1-4)GlcNAc(b1-4)[Fuc(a1-6)]GlcNAc
Procedure, shortened: as §1

[35] = molecular target: Gal(b1-4)GlcNAc(b1-2)Man(a1-3)[Gal(b1-4)GlcNAc(b1-2)Man(a1-6)][GlcNAc(b1-4)]Man(b1-4)GlcNAc(b1-4)[Fuc(a1-6)]GlcNAc
Procedure, shortened: as §1

[36] = molecular target: Gal(b1-4)GlcNAc(b1-2)Man(a1-3)[GlcNAc(b1-2)Man(a1-6)]Man(b1-4)GlcNAc(b1-4)GlcNAc
Procedure, shortened: as §1

[37] = molecular target: Gal(b1-4)GlcNAc(b1-2)Man(a1-3)[GlcNAc(b1-4)][Gal(b1-4)GlcNAc(b1-2)Man(a1-6)]Man(b1-4)GlcNAc(b1-4)GlcNAc
Procedure, shortened: as §1

[38] = molecular target: Gal(b1-4)GlcNAc(b1-2)Man(a1-3)[Man(a1-6)]Man(b1-4)GlcNAc(b1-4)GlcNAc
Procedure, shortened: as §1

[39] = molecular target: Gal(b1-4)GlcNAc(b1-2)Man(a1-6)Man(b1-4)GlcNAc(b1-4)GlcNAc
Procedure, shortened: as §1

B1: FGF1 (Homo sapiens), P05230 (protein)
chain: MAEGEITTFTALTEKFNLPPGNYKKPKLLYSNGGHFLRILPDGTVDGTRDRSDQHIQLQLSAESVGEVYIKSTETGQYLAMTDGLLYGSQTPNEECLFLERLEENHYNTYISKHAEKNWFVGLKKNGSCKRGPRTHYGQAILFLPLPASSED
glycan array binding signal (z-score) [1]: 0.033 | glycan array binding signal (z-score) [2]: -0.129 | glycan array binding signal (z-score) [3]: 1.57 | glycan array binding signal (z-score) [4]: 0.108 | glycan array binding signal (z-score) [5]: 0.241 | glycan array binding signal (z-score) [6]: 0.08 | glycan array binding signal (z-score) [7]: -0.736 | glycan array binding signal (z-score) [8]: -0.788 | glycan array binding signal (z-score) [9]: -0.334 | glycan array binding signal (z-score) [10]: 0.206 | glycan array binding signal (z-score) [11]: -0.458 | glycan array binding signal (z-score) [12]: -0.1 | glycan array binding signal (z-score) [13]: -0.789 | glycan array binding signal (z-score) [14]: -0.442 | glycan array binding signal (z-score) [15]: -0.55 | glycan array binding signal (z-score) [16]: -0.308 | glycan array binding signal (z-score) [17]: -0.132 | glycan array binding signal (z-score) (Gal(b1-3)GlcNAc6S): -0.515 | glycan array binding signal (z-score) [18]: -0.355 | glycan array binding signal (z-score) [19]: 3.59 | glycan array binding signal (z-score) [20]: 3.02 | glycan array binding signal (z-score) [21]: -0.75 | glycan array binding signal (z-score) [22]: -0.833 | glycan array binding signal (z-score) [23]: 1.26 | glycan array binding signal (z-score) [24]: -0.688 | glycan array binding signal (z-score) [25]: -0.697 | glycan array binding signal (z-score) [26]: -0.545 | glycan array binding signal (z-score) [27]: -0.615 | glycan array binding signal (z-score) (Gal(b1-4)Gal): -0.605 | glycan array binding signal (z-score) [28]: -0.949 | glycan array binding signal (z-score) [29]: -1.12 | glycan array binding signal (z-score) (Gal(b1-4)Glc): 1.07 | glycan array binding signal (z-score) (Gal(b1-4)Glc6S): 0.316 | glycan array binding signal (z-score) (Gal(b1-4)GlcNAc): -0.031 | glycan array binding signal (z-score) [30]: -0.827 | glycan array binding signal (z-score) (Gal(b1-4)GlcNAc(b1-2)Man): 1.88 | glycan array binding signal (z-score) [31]: -0.453 | glycan array binding signal (z-score) [32]: -0.495 | glycan array binding signal (z-score) [33]: -0.384 | glycan array binding signal (z-score) [34]: -0.861 | glycan array binding signal (z-score) [35]: -0.77 | glycan array binding signal (z-score) [36]: -0.795 | glycan array binding signal (z-score) [37]: -0.739 | glycan array binding signal (z-score) [38]: 0.476 | glycan array binding signal (z-score) [39]: -0.615
